Test results as given in US20110085986A1, “Diagnosis and treatment of epithelial cancers using labeled/conjugated progastrin peptides” (priority 2009, published 2011).
No constants are given. Whether binding was seen depends on the method and setting. Some binding calls cover weakened binding; strength is not graded here.

Chains of the proteins cited; added tags and fusions are not shown. Residues count along the entry.
UniProt P07355, residues 2-339: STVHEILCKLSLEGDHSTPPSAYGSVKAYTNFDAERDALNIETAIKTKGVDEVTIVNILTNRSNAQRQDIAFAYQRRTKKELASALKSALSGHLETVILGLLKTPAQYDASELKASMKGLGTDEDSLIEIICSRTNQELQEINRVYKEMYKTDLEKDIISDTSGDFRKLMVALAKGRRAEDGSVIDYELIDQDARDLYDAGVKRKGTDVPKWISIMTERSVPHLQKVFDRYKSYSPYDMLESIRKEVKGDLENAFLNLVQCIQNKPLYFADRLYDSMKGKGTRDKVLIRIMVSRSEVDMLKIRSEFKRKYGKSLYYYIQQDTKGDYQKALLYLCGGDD
UniProt Q07936, residues 2-339: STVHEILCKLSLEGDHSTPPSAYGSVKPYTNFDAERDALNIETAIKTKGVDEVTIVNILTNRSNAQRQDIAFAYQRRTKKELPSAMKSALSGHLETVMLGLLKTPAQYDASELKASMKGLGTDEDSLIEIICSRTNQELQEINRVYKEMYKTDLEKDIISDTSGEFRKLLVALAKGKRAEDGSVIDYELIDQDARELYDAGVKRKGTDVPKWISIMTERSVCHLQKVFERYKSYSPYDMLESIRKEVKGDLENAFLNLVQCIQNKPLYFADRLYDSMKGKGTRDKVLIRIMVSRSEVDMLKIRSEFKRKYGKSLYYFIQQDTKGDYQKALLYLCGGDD

Tests used:
[1] = target: Annexin A2 in HEK-293 cells (UniProt P07355); test: immunofluorescence co-localization in cells (HEK-293)
[2] = target: Annexin A2 on AR42J cells and IEC-18 cells (UniProt Q07936); test: IEC-18 cells: co-localization, pull down with anti-PG-Ab and Western blot for ANXII, ANX-II siRNA
[3] = target: Annexin A2 on AR42J cells and IEC-18 cells (UniProt Q07936); test: immunofluorescence co-localization in cells (IEC)
[4] = target: Annexin A2 on AR42J cells and IEC-18 cells (UniProt Q07936); test: confocal immunofluorescence co-localization on IEC-18 cells (FIG. 6A)
[5] = target: Annexin A2 on AR42J cells and IEC-18 cells (UniProt Q07936); test: PG binding/uptake imaging on IEC-18 cells after Anx A2 siRNA versus control siRNA (FIG. 6E)
[6] = target: Annexin A2 on AR42J cells and IEC-18 cells (UniProt Q07936); test: displacement of 125I rhPG from ANX-II on AR42J cells (FIG. 2)
[7] = target: T1, CCK2R on AR42J cells (UniProt P30553); test: displacement of 125I-BH-CCK8 from CCK2R on AR42J cells (FIG. 2)
T1 sequence (looked up): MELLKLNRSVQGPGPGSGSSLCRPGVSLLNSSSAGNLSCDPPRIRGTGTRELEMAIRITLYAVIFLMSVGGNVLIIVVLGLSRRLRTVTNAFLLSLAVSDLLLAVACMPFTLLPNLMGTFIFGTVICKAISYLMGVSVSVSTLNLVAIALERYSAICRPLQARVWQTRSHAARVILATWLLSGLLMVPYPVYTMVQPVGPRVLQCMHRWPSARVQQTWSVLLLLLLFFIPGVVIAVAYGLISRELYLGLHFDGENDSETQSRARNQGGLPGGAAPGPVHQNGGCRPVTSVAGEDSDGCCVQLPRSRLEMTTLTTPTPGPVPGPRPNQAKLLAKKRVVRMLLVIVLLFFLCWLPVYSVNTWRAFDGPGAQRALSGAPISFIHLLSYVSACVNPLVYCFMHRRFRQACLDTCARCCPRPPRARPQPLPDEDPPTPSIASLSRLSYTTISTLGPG

Measured: binding

B1: full length 80 amino acid recombinant progastrin (rhPG) (ligand)
chain: SWKPRSQQPDAPLGTGANRDLELPWLEQQGPASHHRRQLGPQGPPHLVADPSKKQGPWLEEEEEAYGWMDFGRRSAEDEN
not listed: [7]
binds: all other assays above

QGPWLEEEEEAYGWMDF (peptide, UniProt P01350 76-92, looked up, amidated on the carboxyl terminus) [gastrin G17 (amidated gastrin)]
binds: [7]
